Values from PubChem BioAssay AID1259254 (NCATS, 2017).

Purpose: 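Finding genes that stop cells copying their DNA twice in one cycle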 (primary screen)
Cells: human HCT116 colorectal cancer cells
Reagents: single siRNA against human genes
Timing: 3 days
Measurement: 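Imaged Hoechst DNA stain sorts each cell into a cycle phase by DNA amount; per plate, G2 fraction set to 0% for non-targeting and 100% for GMNN siRNA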
Scale: G2 robust z-score and G2 cells, % of GMNN control: higher = more G2 cells, more excess DNA replication; raw share of cells in G2: higher = larger share of cells with G2 DNA content
Active means: 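An siRNA counts as active if its G2 robust z-score lies at least 5 MADs above the screen median; here such calls match roughly 38% of GMNN control or more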
In all, the deposit lists about 59,000 reagents; this is an unselected part. In the full data, about 1,550 (2.6%) are marked active. 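G2 share is only a proxy for re-replication; each gene was hit by three separate siRNAs, and active genes were retested.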 Raw values are not corrected between plates. Reagents against one gene are numbered here. Not stated in the record: the amount of reagent.

no.	gene symbol	reagent no.	G2 robust z-score	G2 cells, % of GMNN control	raw share of cells in G2 (%)	Outcome
1	BLTP2	1	0.0366	3.22	6.79	inactive
2	BLTP2	2	1.22	11.6	8.78	inactive
3	BLTP2	3	0.301	5.08	5.26	inactive
4	TTC23L	1	3.13	25	12.5	inactive
5	TTC23L	2	-0.334	0.62	3.17	inactive
6	TTC23L	3	3.48	27.4	11.4	inactive
7	CT47C1	1	-0.0462	2.64	3.8	inactive
8	CT47C1	2	-0.736	-2.21	2.76	inactive
9	CT47C1	3	5.74	43.4	20	active
10	SPOUT1	1	-0.708	-2.01	2.88	inactive
11	SPOUT1	2	-0.72	-2.1	3.39	inactive
12	SPOUT1	3	-0.941	-3.65	1.98	inactive
13	NRL	1	-0.432	-0.0749	5.17	inactive
14	NRL	2	1.23	11.6	9.48	inactive
15	NRL	3	0.888	9.21	6.34	inactive
16	TMEM237	1	0.187	4.28	6.44	inactive
17	TMEM237	2	0.457	6.18	7.38	inactive
18	TMEM237	3	-1.06	-4.51	1.51	inactive
19	OR2A5	1	-0.398	0.169	4.86	inactive
20	OR2A5	2	-1.28	-6.01	1.62	inactive
21	OR2A5	3	2.27	19	11	inactive
22	OR8S1	1	-0.737	-2.22	3.22	inactive
23	OR8S1	2	0.872	9.1	7.24	inactive
24	OR8S1	3	0.631	7.41	7.17	inactive
25	WFS1	1	0.702	7.91	7.08	inactive
26	WFS1	2	1.27	11.9	8.7	inactive
27	WFS1	3	0.271	4.87	7.66	inactive
28	RXFP2	1	0.281	4.94	7.61	inactive
29	RXFP2	2	0.0192	3.1	5.6	inactive
30	RXFP2	3	-0.982	-3.94	2.06	inactive
31	AGBL1-AS1	1	0.692	7.83	5.63	inactive
32	AGBL1-AS1	2	-0.798	-2.65	2.6	inactive
33	AGBL1-AS1	3	-0.049	2.62	4.54	inactive
34	FAM124B	1	1.06	10.4	8.78	inactive
35	FAM124B	2	-0.418	0.0279	4.32	inactive
36	FAM124B	3	-0.453	-0.222	2.32	inactive
37	GNPTG	1	1.68	14.8	11.6	inactive
38	GNPTG	2	-1.39	-6.84	1.72	inactive
39	GNPTG	3	0.119	3.8	6.2	inactive
40	PMS2P1	1	1.14	11	9.65	inactive
41	PMS2P1	2	-0.728	-2.15	3.37	inactive
42	PMS2P1	3	-0.226	1.38	3.85	inactive
43	SLCO3A1	1	-0.0314	2.75	5.1	inactive
44	SLCO3A1	2	-0.677	-1.79	3.4	inactive
45	SLCO3A1	3	-1.59	-8.22	2.43	inactive
46	RASAL3	1	0.434	6.02	7.2	inactive
47	RASAL3	2	-0.437	-0.106	4.56	inactive
48	RASAL3	3	-0.066	2.5	3.36	inactive
